# In PubChem BioAssay AID588497 (NMMLSC, 2011):
# Screen size: about 360,000 compounds; about 780 (0.22%) were called active. This list was built around the results that the source calls inconclusive (neither active nor inactive); the mix of calls is not that of the screen. No stated cut-off is given here; in the data, active means inhibition above about 35% (passing the limit was not always enough); inconclusive means no clear call, values can overlap the other calls. Where a SMILES comes first, the peptide text is derived from it. [ ]: non-standard residue; d: D form. Inp = O=C(O)C1CCNCC1
# Tested on: Botulinum neurotoxin type F light chain protease (Clostridium botulinum)
# Test: BoNT/F light chain protease inhibitors, primary screen, biochemical, flow cytometry, MLPCN library (AID 588497); further: plate controls were buffer without enzyme for full effect and enzyme alone for no effect
# Settings: Multiplex microsphere protease cleavage assay, at 10 µM, stronger effect = higher value
row,Compound,inhibition
1,CCOC(=O)N1CCC(NC(=O)c2ccc3c(c2)N(C)CCS3)CC1,inactive: 2%
2,COc1ccc(NC(=O)CSc2nnc(NC(=O)C3CC3)s2)cc1OC,inconclusive: 24%
3,Cc1nc(Nc2ccc(Cl)cc2)c2oc3ccccc3c2n1,inconclusive: 5.4%
4,Cc1ccc(NC(=O)CCOc2ccccc2C)cc1C,inactive: -22.6%
5,O=C(CN1C(=O)/C(=C\c2cccc(Br)c2)Oc2ccccc21)NCCCN1CCOCC1,inactive: -1.9%
6,COC(=O)c1cnc(NNS(=O)(=O)c2ccc(Cl)cc2)nc1C(F)(F)F,inconclusive: -22.2%
7,CC(CC(=O)N(C)CC(=O)Nc1ccc(N2CCOCC2)cc1)c1ccccc1 (stereo unspecified),inactive: 4.2%
8,Cn1cnnc1SCC(=O)Nc1ccc(S(N)(=O)=O)cc1,active: 37.4%
9,COc1ccc(NS(=O)(=O)c2cccc(C(=O)N3CCCC3)c2)cc1,inconclusive: -0.7%
10,O=C(O)Cc1ccc(NC(=O)Cc2ccc3ccccc3c2)cc1,inactive: 15.2%
11,COc1ccc(N2CCC(CNC(=O)Nc3cccc(OC)c3)C2)cc1 (stereo unspecified),inconclusive: -27.5%
12,COC(=O)Nc1nnc(-c2ccccc2Cl)s1,inactive: -4.6%
13,NC(=O)C1(N2CCCCC2)CCN(C(=O)c2cccn3c(=O)c4cc(Cl)ccc4nc23)CC1,inactive: 4.3%
14,O=C(Nc1cccc(Br)c1)c1ccc(CN2CCc3ccccc3C2)cc1,inconclusive: -17.4%
15,CC1CN(C(=O)Nc2ccc(F)cc2)C2(CCCCCC2)O1 (stereo unspecified),inactive: -16.9%
16,CCOC(=O)C(=CNc1cc(C(F)(F)F)ccc1N1CCOCC1)C(=O)OCC,inconclusive: -36.3%
17,CC(OC(=O)CNC(=O)c1sc2ccccc2c1Cl)C(=O)NC1(C#N)CCCCC1 (stereo unspecified),inactive: -6%
18,COc1cccc(CNC(=O)CCCn2c(=S)[nH]c3cc4c(cc3c2=O)OCO4)c1,inactive: -0.3%
19,Cc1cc(C(=O)CSc2nnc(-c3ccco3)o2)c(C)n1CC1COc2ccccc2O1 (stereo unspecified),inactive: 0.3%
20,N[C@@H](Cc1ccccc1)C(=O)N1CCC(C(=O)NCC(=O)NCC(=O)O)CC1 (H-F[Inp]GG-OH),inconclusive: 3.6%
21,O=C(c1cccc(S(=O)(=O)N2CCCC2)c1)N1CCN(c2ccccc2)CC1,inactive: -2.2%
22,CCCCCCCCCCn1ccc(=N)cc1,inconclusive: -84.7%
23,CC(=O)Nc1ccc(NC(=O)CSc2ncnn2-c2ccccc2)cc1,inconclusive: 6.9%

row,Compound,inhibition
1,CC(COC(=O)c1ccccc1)(COC(=O)c1ccccc1)/[N+]([O-])=C/c1ccccc1,inactive: 1.5%
2,CNc1nc(N)c([N+](=O)[O-])c(N2CCCCCC2)n1,inconclusive: -3.2%
3,CCOc1ccccc1NC(=O)CCCc1ccc(OC)c(C)c1,inconclusive: -15.4%
4,Cn1nnnc1SCC(=O)Nc1ccccc1N1CCOCC1,inconclusive: -27.8%
5,CCOC(=O)N1CCN(C(=O)C(=O)N/N=C/c2ccc(OC)cc2OC)CC1,inconclusive: -33.3%
6,CCOC(=O)C1=C(C)NC(=S)NC1c1ccco1 (stereo unspecified),inconclusive: -16.8%
7,CCOC(=O)C1=C[C@@H](c2ccccc2)N(S(=O)(=O)c2ccc(C)cc2)[C@H]1c1ccccc1Cl,inactive: -11.6%
8,Cc1nc2ccccc2c(=O)n1/N=C/c1cn[nH]c1-c1ccccc1,inconclusive: -13.1%
9,Cn1c(=O)c2c(ncn2CC(=O)N2CCN(c3ccc([N+](=O)[O-])cc3)CC2)n(C)c1=O,inconclusive: 28.1%
10,O=[N+]([O-])c1ccccc1-c1ccc(C(=S)N2CCN(c3ccccc3)CC2)o1,inconclusive: 66.3%
11,Cc1c(/C=N/O)sc2ccccc12,inconclusive: -112%
12,COc1ccc(CN2CCC(C(N)=O)CC2)cc1OCc1ccccc1,inconclusive: -58.3%
13,COc1cc(/C=C2\SC(=O)NC2=O)ccc1Oc1ccc([N+](=O)[O-])cn1,inconclusive: -53.1%
14,CSc1ccc(NC(=O)NCc2ccccc2)cc1,inconclusive: -1.6%
15,CC(=O)c1c(C)nc2ccc([N+](=O)[O-])cc2c1-c1ccccc1,inconclusive: -32.3%
16,O=C(NCCO)c1ccc(-c2nnc(Nc3ccc(O)cc3)c3ccccc23)cc1,inactive: -7.8%
17,CC(=O)c1cccc(NC(=O)c2ccc(Br)o2)c1,inactive: -2%
18,CN(C)CCCn1c(SCc2ccc(Cl)cc2)nnc1-c1ccncc1,inconclusive: 18.3%
19,COc1ccc(-c2nn(CCC#N)cc2C(=O)NCc2ccccc2)cc1OC,inconclusive: -15.3%
20,C=CCn1c(C23CC4CC(CC(C4)C2)C3)n[nH]c1=S,inconclusive: -27.3%
21,CC1CCc2nn(CC(=O)N3CCN(C(=O)c4ccco4)CC3)cc2C1 (stereo unspecified),inactive: -6.5%
22,CCOc1ccc(N2CSC(=S)N(c3ccc(OCC)cc3)C2)cc1,inconclusive: 27.2%
23,O=C(N/N=C/c1ccc([N+](=O)[O-])cc1)c1cc(C2CC2)nc2ccccc12,inconclusive: -7.4%

# As entered above:
# Value of O=C(Nc1cccc(Br)c1)c1ccc(CN2CCc3ccccc3C2)cc1 under inhibition: inconclusive: -17.4%
# Value of CC(=O)c1cccc(NC(=O)c2ccc(Br)o2)c1 under inhibition: inactive: -2%
# Value of CSc1ccc(NC(=O)NCc2ccccc2)cc1 under inhibition: inconclusive: -1.6%
# Value of CC(COC(=O)c1ccccc1)(COC(=O)c1ccccc1)/[N+]([O-])=C/c1ccccc1 under inhibition: inactive: 1.5%
# Value of N[C@@H](Cc1ccccc1)C(=O)N1CCC(C(=O)NCC(=O)NCC(=O)O)CC1 (H-F[Inp]GG-OH) under inhibition: inconclusive: 3.6%
# Value of CCOc1ccc(N2CSC(=S)N(c3ccc(OCC)cc3)C2)cc1 under inhibition: inconclusive: 27.2%

# More results follow:

row,Compound,inhibition
1,CC1CC1C(=O)OCC(=O)NNC(=O)COc1ccc(Br)cc1 (stereo unspecified),inconclusive: -14.1%
2,C=CCn1c(=O)c(C(=O)NCCc2ccccc2)c(O)c2ccccc21,inactive: 23.4%
3,Cc1c(NC(=S)NC(=O)c2cccc(Cl)c2)c(=O)n(-c2ccccc2)n1C,inconclusive: -20.6%
4,Cc1ccc2c(c1)CNc1ccccc1O2,inactive: 1.7%
5,CN(/N=C/c1ccc(Cl)cc1Cl)c1ncc(Cl)cc1C(F)(F)F,inconclusive: -130%
6,COC(=O)c1ccc(OCCCCN(C)Cc2ccccc2)cc1,inconclusive: 29.2%
7,COc1ccccc1NC(=O)C(C)OC(=O)Cn1cnc2c1c(=O)n(C)c(=O)n2C (stereo unspecified),inconclusive: 1.1%
8,CC(=O)Nc1nc2c(s1)C(=O)NCC(C)(C)C2,inconclusive: -34.2%
9,Cc1nn2c(C)c(C(=O)Nc3ccccc3)cnc2c1-c1ccccc1,inconclusive: -138%
10,CCCC(=O)Nc1nnc(CCc2ccccc2)s1,inconclusive: -1.4%
11,O=C(OCC(=O)N1CCN(S(=O)(=O)c2ccc(Cl)cc2)CC1)C1CC1,inactive: -4.9%
12,O=C1CN(C(=O)COc2ccccc2Cl)c2ccccc2N1,inconclusive: -10%
13,CCCCn1c(N)c(N(CCOC)C(=O)COC(=O)Cc2cccc(OC)c2)c(=O)[nH]c1=O,inconclusive: 5.1%
14,CCOc1ccccc1NC(=O)N1CCC(n2nnc3cc(C)ccc32)CC1,inactive: -2%
15,O=C(Nc1ccccc1C(F)(F)F)N1CCCC1c1cccnc1 (stereo unspecified),inconclusive: -156%
16,COc1cc(Br)c(Br)cc1N,inconclusive: 162%
17,CCOc1ccccc1NC(=O)CN(c1ccc(Cl)cc1)S(C)(=O)=O,inconclusive: 0.8%
18,O=C(COc1ccc([N+](=O)[O-])cc1)NCCc1nc2ccccc2[nH]1,inconclusive: 2.4%
19,CN(C)c1ccc(/C=N/NC(=O)c2cnc3ccccc3c2)cc1,inactive: 9.8%
20,CCCCn1c(O)c2n(c1=O)Cc1ccccc1N=C2c1ccc(C)cc1,inactive: -4.6%
21,Nc1ccccc1SC1CC(=O)N(c2ccc3c(c2)OCO3)C1=O (stereo unspecified),inconclusive: 71%
22,CS(=O)(=O)N1CCC(Oc2ccccc2C(=O)NCCCc2cccnc2)CC1,inactive: 0.6%
23,Cc1nc(NC(=O)c2ccccc2)sc1-c1csc(NCc2ccccc2)n1,inactive: 3.3%

row,Compound,inhibition
1,Cc1ccc(-c2nc(N)n(C(=O)Cc3ccccc3)n2)cc1,inconclusive: 16.7%
2,O=C(NCCC1CCCCN1S(=O)(=O)c1ccccc1)C(=O)NCc1ccccc1F (stereo unspecified),inactive: 3.4%
3,COc1cc(/C=N/Nc2ccc(C(F)(F)F)cn2)ccc1O,inactive: -2.6%
4,C=CCc1cc(C=Nc2ccc(N3CCOCC3)cc2)cc(OCC)c1O,inconclusive: 18.8%
5,CCN(CC(=O)Nc1c(F)cccc1F)C(=O)CCCc1nc2ccccc2c(=O)[nH]1,inconclusive: 1.1%
6,CC(C)OC(=O)C(C)Nc1ccc(F)c(Cl)c1 (stereo unspecified),active: 39.6%
7,CCN(CC)c1nc(N)nc(NS(=O)(=O)c2ccc(Cl)cc2)n1,inactive: 6.4%
8,CCc1nc2c(C#N)c(-c3ccc(Cl)cc3)ccn2n1,inconclusive: -38.1%
9,CC(=O)Nc1nc2n(n1)C(c1ccccc1)C=C(c1ccccc1)N2 (stereo unspecified),inactive: -3.9%
10,Cc1ccc(S(=O)(=O)N2CCN(c3ncccn3)CC2)cc1C,inconclusive: -14.7%
11,CCc1nc2c(OCCC3CCCCC3)cccn2c1N(C)C(=O)c1ccc(OC)cc1,inactive: 2.1%
12,Cc1cc(NC(=O)C(=O)c2c(C)[nH]c3ccccc23)no1,inactive: -2.9%
13,COc1ccc(S(=O)(=O)N2CCSC2c2ccc(OC)c(OC)c2)cc1 (stereo unspecified),inconclusive: -8.6%
14,Cn1c(=O)c2ccccc2n(Cc2cccc(F)c2)c1=O,inconclusive: 12%
15,CCn1nc(NC(=O)C2CCCO2)c2cc3cccc(C)c3nc21 (stereo unspecified),inconclusive: -25.5%
16,CC(CN1CCOCC1)OC(=O)c1cccc(Cl)c1 (stereo unspecified),inactive: 30.1%
17,CC(=O)OC1COC(n2c(O)c(N=NC(N)=S)c3ccccc32)C(OC(C)=O)C1OC(C)=O (stereo unspecified),inconclusive: -39.8%
18,N#Cc1ccc(CSc2nnc(-c3cccc(S(=O)(=O)N4CCCCC4)c3)o2)cc1,inconclusive: 11.2%
19,CC(NC(=O)c1cccs1)c1ccccc1 (stereo unspecified),inconclusive: 20.6%
20,CCC(C)Nc1nc(N)c([N+](=O)[O-])c(NC2CCCCC2)n1 (stereo unspecified),inconclusive: -1.6%
21,CSc1ccc(CNCC2CCCO2)cc1 (stereo unspecified),inconclusive: -15.6%
22,O=C(N/N=C/c1cccc([N+](=O)[O-])c1)c1cc(-c2ccc3c(c2)OCO3)n[nH]1,inconclusive: -9.1%
